Measurements: paper PMC5843676
Results are given in words; binding and its absence hold for the method and conditions named. Some binding calls cover weakened binding; strength is not graded here.

The chains behind the UniProt entries cited, without tags or fusion partners. Where a name states a change or a piece, a line headed by the entry shows the natural chain unless it says otherwise.
UniProt P08514: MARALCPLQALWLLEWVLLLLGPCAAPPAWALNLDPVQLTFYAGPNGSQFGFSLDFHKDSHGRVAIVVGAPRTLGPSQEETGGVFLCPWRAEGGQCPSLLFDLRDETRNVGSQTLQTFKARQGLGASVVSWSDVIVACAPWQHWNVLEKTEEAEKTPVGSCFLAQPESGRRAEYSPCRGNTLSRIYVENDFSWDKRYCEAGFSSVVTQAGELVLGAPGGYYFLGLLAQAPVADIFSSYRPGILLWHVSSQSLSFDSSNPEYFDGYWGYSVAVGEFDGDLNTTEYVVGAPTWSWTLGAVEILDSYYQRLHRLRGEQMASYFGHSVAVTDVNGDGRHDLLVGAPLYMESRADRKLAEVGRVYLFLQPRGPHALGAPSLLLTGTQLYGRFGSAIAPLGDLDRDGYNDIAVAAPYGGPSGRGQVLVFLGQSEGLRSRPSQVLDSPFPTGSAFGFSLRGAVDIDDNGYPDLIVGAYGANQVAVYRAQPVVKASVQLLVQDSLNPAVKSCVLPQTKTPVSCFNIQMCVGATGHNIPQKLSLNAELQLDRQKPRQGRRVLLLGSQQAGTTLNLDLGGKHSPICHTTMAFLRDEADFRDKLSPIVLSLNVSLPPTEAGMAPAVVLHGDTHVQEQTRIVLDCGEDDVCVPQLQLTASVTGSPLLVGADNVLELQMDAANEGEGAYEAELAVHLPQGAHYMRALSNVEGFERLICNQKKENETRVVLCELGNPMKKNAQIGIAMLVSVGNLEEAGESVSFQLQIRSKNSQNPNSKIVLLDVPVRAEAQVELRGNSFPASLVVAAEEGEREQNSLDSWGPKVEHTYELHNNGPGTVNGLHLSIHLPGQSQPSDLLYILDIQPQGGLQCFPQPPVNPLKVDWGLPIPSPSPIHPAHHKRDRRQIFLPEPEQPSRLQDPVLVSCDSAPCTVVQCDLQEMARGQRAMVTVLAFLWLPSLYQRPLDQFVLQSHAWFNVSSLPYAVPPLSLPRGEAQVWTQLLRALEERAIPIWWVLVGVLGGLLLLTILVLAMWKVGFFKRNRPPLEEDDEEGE
UniProt P05106: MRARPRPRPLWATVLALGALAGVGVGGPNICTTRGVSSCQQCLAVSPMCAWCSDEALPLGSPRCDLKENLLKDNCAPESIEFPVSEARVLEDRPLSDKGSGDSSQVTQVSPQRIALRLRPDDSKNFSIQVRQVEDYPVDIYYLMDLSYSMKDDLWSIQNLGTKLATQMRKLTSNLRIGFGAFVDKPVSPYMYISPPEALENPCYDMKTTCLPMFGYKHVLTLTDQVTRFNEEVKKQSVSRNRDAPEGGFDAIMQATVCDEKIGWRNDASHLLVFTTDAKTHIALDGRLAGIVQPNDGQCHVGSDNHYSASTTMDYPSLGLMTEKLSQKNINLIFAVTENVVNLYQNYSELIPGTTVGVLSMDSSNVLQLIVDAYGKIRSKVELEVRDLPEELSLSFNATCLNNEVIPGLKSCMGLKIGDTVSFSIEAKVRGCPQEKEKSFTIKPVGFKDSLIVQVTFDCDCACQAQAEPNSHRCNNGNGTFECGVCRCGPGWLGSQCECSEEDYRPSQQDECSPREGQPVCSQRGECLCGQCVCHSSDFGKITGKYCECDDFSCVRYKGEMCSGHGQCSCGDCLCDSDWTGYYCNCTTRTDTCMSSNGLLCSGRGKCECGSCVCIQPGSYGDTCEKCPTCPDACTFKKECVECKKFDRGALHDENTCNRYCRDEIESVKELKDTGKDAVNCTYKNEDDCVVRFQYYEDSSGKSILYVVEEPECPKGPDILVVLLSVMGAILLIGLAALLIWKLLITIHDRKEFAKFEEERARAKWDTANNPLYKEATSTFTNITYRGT

Target: human αIIbβ3 integrin on CHO cells (CHO-αIIbβ3) (human) (UniProt P08514+P05106)
Assay: flow cytometry on cells; CHO transfectants with or without 10 nM PMA, incubated 30-60 min with PE-sEng; specificity tested with a tenfold molar excess of unlabeled sEng; parental CHO as control; only the binder purified

binding | Binder
binds | phycoerythrin-labeled soluble endoglin (PE-sEng) (domain or fragment, UniProt P17813 26-586, phycoerythrin label (site not stated)) ETVHCDLQPVGPERGEVTYTTSQVSKGCVAQAPNAILEVHVLFLEFPTGPSQLELTLQASKQNGTWPREVLLVLSVNSSVFLHLQALGIPLHLAYNSSLVTFQEPPGVNTTELPSFPKTQILEWAAERGPITSAAELNDPQSILLRLGQAQGSLSFCMLEASQDMGRTLEWRPRTPALVRGCHLEGVAGHKEAHILRVLPGHSAGPRTVTVKVELSCAPGDLDAVLILQGPPYVSWLIDANHNMQIWTTGEYSFKIFPEKNIRGFKLPDTPQGLLGEARMLNASIVASFVELPLASIVSLHASSCGGRLQTSPAPIQTTPPKDTCSPELLMSLIQTKCADDAMTLVLKKELVAHLKCTITGLTFWDPSCEAEDRGDKFVLRSAYSSCGMQVSASMISNEAVVNILSSSSPQRKKVHCLNMDSLSFQLGLYLSPHFLQASNTIEPGQQSFVQVRVSPSVSEFLLQLDSCHLDLGPEGGTVELIQGRAAKGNCVSLLSPSPEGDPRFSFLLHFYTVPIPKTGTLSCTVALRPKTGSQDQEVHRTVFMRLNIISPDLSGCTSKG
binds | soluble endoglin (sEng; extracellular domain Glu26-Gly586) (domain or fragment, UniProt P17813 26-586) ETVHCDLQPVGPERGEVTYTTSQVSKGCVAQAPNAILEVHVLFLEFPTGPSQLELTLQASKQNGTWPREVLLVLSVNSSVFLHLQALGIPLHLAYNSSLVTFQEPPGVNTTELPSFPKTQILEWAAERGPITSAAELNDPQSILLRLGQAQGSLSFCMLEASQDMGRTLEWRPRTPALVRGCHLEGVAGHKEAHILRVLPGHSAGPRTVTVKVELSCAPGDLDAVLILQGPPYVSWLIDANHNMQIWTTGEYSFKIFPEKNIRGFKLPDTPQGLLGEARMLNASIVASFVELPLASIVSLHASSCGGRLQTSPAPIQTTPPKDTCSPELLMSLIQTKCADDAMTLVLKKELVAHLKCTITGLTFWDPSCEAEDRGDKFVLRSAYSSCGMQVSASMISNEAVVNILSSSSPQRKKVHCLNMDSLSFQLGLYLSPHFLQASNTIEPGQQSFVQVRVSPSVSEFLLQLDSCHLDLGPEGGTVELIQGRAAKGNCVSLLSPSPEGDPRFSFLLHFYTVPIPKTGTLSCTVALRPKTGSQDQEVHRTVFMRLNIISPDLSGCTSKG
